Measurements taken from publication PMC9830501.
Results are given in words; binding and its absence hold for the method and conditions named. In cells and extracts the contact can be indirect. Some results given as binding are weak or reduced against the parent protein; the word gives no strength.

Sequences of proteins named here, by UniProt entry; tags and fusion partners are left off.
UniProt Q9JK66: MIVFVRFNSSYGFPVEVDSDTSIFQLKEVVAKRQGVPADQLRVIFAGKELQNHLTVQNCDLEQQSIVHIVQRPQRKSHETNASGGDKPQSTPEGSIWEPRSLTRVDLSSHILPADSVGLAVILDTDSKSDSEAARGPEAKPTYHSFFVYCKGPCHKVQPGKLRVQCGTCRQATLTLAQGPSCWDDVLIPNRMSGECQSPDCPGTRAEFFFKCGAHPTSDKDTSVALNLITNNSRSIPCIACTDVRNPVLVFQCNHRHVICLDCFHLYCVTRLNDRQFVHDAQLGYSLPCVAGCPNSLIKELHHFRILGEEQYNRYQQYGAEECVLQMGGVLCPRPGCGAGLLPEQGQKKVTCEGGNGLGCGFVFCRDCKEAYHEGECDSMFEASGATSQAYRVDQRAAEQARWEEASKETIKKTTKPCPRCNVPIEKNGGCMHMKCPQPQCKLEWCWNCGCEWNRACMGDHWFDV

What was measured:
[1] = biological target: Sqstm1 (rat (endogenous in NP cells)) (UniProt O08623); experiment: co-IP; endogenous proteins; whole cell lysate of rat NP cells treated with 0 or 20 ng/ml IL-1β for 48h; IP with control IgG, anti-Sesn2, anti-Parkin or anti-Sqstm1 antibody, protein A agarose, 4°C; immunoblot
[2] = biological target: Parkin (rat (endogenous in NP cells)) (UniProt Q9JK66); experiment: as above

B1: Sestrin 2 (Sesn2) (protein, UniProt A0A8I5Y865 1-480)
chain: MIVADSECHGEIKGYLPFTRGGVAGPGTREEHREGQARRGPRGPSAFIPVEEILREGAESLEQHLGLEALMSSGRVDNLAVVMGLHPDYLSSFWRLHYLLLHTDGPLASSWRHYIAIMAAARHQCSYLVGSHMTEFLQTGGDPEWLLGLHRAPEKLRKLSEINKLLAHRPWLITKEHIQALLKTGEHSWSLAELIQALVLLTHCHCLASFVFGCGILPEGDAEGSPASQAPSPPSEQGGPPSRDPLNNSGGFEAARDIEALMERMRQLQESLLRDEGASQEEMENRFELEKTESLLVTPSADILEPSPHPDILCFVEDPTFGYEDFTRRGTQAPPTFRAQDYTWEDHGYSLIQRLYPEGGQLLDEKFQVAYSLTYNTIAMHSGVDTSMLRRAVWNYIHCVFGIRYDDYDYGEVNQLLERNLKIYIKTVACYPEKTTRRMYNLFWRHFRHSEKVHVNLLLLEARMQAALLYALRAITRYMT
binding [1]: binds
binding [2]: binds
